Earlier results as cited in paper PMC9673116 (Poultry Science, 2022).

Tested on: chicken BCRP
Settings: ref Zhang et al., 2018; cited from earlier work

Structure (SMILES): CCC[C@@H]1C[C@@H](C(=O)N[C@@H]([C@H]2O[C@H](SC)[C@H](O)[C@@H](O)[C@H]2O)[C@H](C)Cl)N(C)C1 [clindamycin]
- Transport by chicken BCRP: actively transported
